Test results reported in article PMC11762004.

Protein sequences, listed by entry. Tags and fused reporters are not part of them. Lines headed by an entry give the natural chain unless they say otherwise; changes in a name come on top.
UniProt P18206: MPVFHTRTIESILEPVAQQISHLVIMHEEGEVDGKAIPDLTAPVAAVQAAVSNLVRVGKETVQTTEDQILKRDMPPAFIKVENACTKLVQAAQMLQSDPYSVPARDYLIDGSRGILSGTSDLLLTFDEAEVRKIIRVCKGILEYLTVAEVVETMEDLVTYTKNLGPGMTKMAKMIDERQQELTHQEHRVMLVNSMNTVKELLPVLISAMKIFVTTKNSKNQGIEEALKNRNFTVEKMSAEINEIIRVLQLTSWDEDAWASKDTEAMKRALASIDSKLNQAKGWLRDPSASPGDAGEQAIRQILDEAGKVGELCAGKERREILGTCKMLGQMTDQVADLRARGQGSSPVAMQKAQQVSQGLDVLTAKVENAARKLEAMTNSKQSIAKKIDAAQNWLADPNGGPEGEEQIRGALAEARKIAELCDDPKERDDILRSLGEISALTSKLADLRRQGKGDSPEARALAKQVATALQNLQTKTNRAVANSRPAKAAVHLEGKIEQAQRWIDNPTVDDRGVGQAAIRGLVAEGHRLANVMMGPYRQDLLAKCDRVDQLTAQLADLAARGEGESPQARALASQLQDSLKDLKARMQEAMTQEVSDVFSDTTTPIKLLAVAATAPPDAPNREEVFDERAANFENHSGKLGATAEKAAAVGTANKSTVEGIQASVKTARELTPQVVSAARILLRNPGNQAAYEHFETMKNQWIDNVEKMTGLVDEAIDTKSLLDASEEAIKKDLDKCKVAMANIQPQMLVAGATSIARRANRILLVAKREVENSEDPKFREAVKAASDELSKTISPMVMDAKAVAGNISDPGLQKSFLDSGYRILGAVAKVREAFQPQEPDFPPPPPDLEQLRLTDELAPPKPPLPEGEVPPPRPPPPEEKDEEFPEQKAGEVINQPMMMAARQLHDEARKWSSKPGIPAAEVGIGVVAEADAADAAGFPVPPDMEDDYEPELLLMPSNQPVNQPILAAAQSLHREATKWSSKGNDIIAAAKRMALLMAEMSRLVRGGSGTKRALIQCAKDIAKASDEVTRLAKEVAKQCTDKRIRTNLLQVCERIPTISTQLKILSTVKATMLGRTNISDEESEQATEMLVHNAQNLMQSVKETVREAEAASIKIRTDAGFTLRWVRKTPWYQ

T1: Glypican-6 (GPC6) (human (endogenous in MDA-MB-231)) (UniProt Q9Y625)
T1 sequence: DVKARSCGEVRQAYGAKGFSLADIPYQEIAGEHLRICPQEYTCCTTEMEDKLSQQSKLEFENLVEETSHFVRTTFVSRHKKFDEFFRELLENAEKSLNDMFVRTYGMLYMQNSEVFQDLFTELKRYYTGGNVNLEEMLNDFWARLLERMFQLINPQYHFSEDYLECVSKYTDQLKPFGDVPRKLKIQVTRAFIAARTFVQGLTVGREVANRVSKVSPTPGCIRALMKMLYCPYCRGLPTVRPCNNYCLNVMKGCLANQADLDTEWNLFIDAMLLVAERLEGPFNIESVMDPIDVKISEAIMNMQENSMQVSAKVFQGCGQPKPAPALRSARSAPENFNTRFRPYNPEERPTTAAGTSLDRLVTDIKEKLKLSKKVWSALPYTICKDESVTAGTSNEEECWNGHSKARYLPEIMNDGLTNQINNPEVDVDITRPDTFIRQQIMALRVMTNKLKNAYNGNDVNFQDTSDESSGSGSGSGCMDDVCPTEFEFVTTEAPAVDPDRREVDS

B1: Glypican-6 (GPC6) (protein, UniProt Q9Y625 24-529)
chain: T1 sequence

Columns and labels:
[1] = target: T1, Glypican-6 (GPC6) (human (endogenous in MDA-MB-231)); assay: co-IP; MDA-MB-231 cell lysate (20 mM Tris pH 7.4, 150 mM NaCl, 5 mM MgCl2, 0.5% NP-40, protease inhibitors); IP with mouse anti-GPC6, mouse anti-vinculin or control mouse IgG at 4 °C, Protein A/G agarose beads overnight; Western blot with anti-vinculin and anti-GPC6; endogenous proteins
[2] = target: Vinculin (human (endogenous in MDA-MB-231)) (UniProt P18206); assay: as above

Row | Molecule | binding [1] | binding [2]
1 | Vinculin (from UniProt P18206-2) | binds | 
2 | B1 |  | binds weakly

No constants are given. Whether binding was seen depends on the method and setting. In cells and extracts the contact can be indirect. Binding can be weak; no strength is given.
